Molecules are shown by their SMILES. Structures can show the parent of a compound that is named as a salt. The list shows a part of the results. Single values are uncertain here, since repeats match poorly.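 The cells were human embryonic kidney cells carrying a Renilla luciferase gene, driven by the HSV-TK promoter, on a plasmid put in briefly by transfection. This is the first-round screen of about ten thousand compounds, looking for ones that raise reporter output.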

The assay has as its system HEK 293FT. The experiment in a line: log relative Renilla luciferase luminescence (reporter expression vs reference, reference not stated) (log (base not stated)); higher = higher recombinant reporter expression. The following applies: 10 µM; time after transfection 48 h.
As to `C[C@H](N)Cn1ccc2cc(F)c(Cl)cc21` [Ro 60-0175 fumarate], the log worked out at 0.0438.

For the compound `Ic1cncc(OC[C@@H]2CCN2)c1`, the log amounted to 0.176.

On to `C=CCN1CC[C@]23c4c5ccc(O)c4O[C@H]2C(=O)CC[C@@]3(O)[C@H]1C5` [Naloxone hydrochloride], for which the log is 0.0534.

Regarding `CN[C@@H]1C[C@@H](c2ccc(Cl)c(Cl)c2)c2ccccc21` [Indatraline hydrochloride], the log turned out to be 0.153.

For the compound `O=c1[nH]oc2c1CCNC2` [THIP hydrochloride], the log stood at 0.0505.

For `CCC[C@@H]1CC2=CC(=O)CC[C@]2(C)[C@H]2CC[C@@]3(C)[C@@H](CC[C@@]3(O)CCC(=O)O)[C@H]12`, the log was determined as 0.0406.

For the compound `COc1ccc2c(c1)c(CCN1CCOCC1)c(C)n2C(=O)c1cccc(Cl)c1Cl`, the log is -0.0382.

Turning to `Clc1ccc(C2=CCCC3CCC2N3)cn1` (stereo not drawn) [UB 165 fumarate], the log was -0.00324.

Consider `CCN1C[C@]2(COC(=O)c3ccccc3N3C(=O)C[C@H](C)C3=O)CC[C@H](OC)[C@@]34[C@@H]5C[C@H]6[C@H](OC)[C@@H]5[C@](O)(C[C@@H]6OC)[C@](O)([C@@H](OC)[C@H]23)[C@@H]14` [Methyllycaconitine citrate], for which the log was -0.0634.

As to `CCCN(CCC)C1Cc2cc(OC)c(OC)cc2C1`, the log is -0.00977.

Consider `Cc1ncc(CN2CC=C(c3ccccc3)CC2)c(N)n1`, for which the log was -0.399.

`CN(C)c1ccc(/C=C2\CCCN=C2c2cccnc2)cc1` [DMAB-anabaseine dihydrochloride]: the log came to 0.0553.

Take `CN1[C@@H]2C[C@@H](OC(=O)[C@H](CO)c3ccccc3)C[C@H]1[C@@H]1O[C@@H]12` [Scopolamine hydrobromide]: the log was -0.00758.

For the origin of these results see the supplement of paper PMC7024190.
